Reference: publication PMC7862700
The list shows a part of the results, in another mix than the full data. At the low end of the ranking, values are background and their order means little.

The chains behind the UniProt entries cited, without tags or fusion partners. Where a name states a change or a piece, a line headed by the entry shows the natural chain unless it says otherwise.
UniProt O43186: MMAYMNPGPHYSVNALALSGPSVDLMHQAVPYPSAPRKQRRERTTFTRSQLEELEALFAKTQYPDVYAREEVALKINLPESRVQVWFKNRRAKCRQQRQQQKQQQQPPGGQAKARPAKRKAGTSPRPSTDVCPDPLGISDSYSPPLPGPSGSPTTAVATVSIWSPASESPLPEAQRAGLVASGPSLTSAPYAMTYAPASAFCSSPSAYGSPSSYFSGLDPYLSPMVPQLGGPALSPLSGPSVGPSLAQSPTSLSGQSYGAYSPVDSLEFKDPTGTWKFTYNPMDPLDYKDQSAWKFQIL

Legend:
Test in all cases: DAPPL (digital affinity profiling via proximity ligation, sequencing)
Settings in all cases: 10 mM Tris-HCl pH 7.5, 50 mM NaCl, 1 mM DTT, 4% glycerol, room temperature, 30 min; GST-TFs on glutathione beads, 16-mer random dsDNA library, 0.1% …; high values mean tight binding; double strand, one strand shown; scale: fold enrichment (6-mer frequency, TF over GST control)
FEV = target: T1, FEV (UniProt Q99581)
T1 sequence: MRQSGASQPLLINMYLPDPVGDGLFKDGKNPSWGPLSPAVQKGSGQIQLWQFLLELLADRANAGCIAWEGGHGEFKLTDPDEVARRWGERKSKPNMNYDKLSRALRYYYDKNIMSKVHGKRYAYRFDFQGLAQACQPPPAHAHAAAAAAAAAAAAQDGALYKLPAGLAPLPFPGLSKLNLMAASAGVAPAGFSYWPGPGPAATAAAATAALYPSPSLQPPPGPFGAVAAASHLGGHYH

CRX = CRX (UniProt O43186)
ELF5 = target: T2, ELF5 (UniProt Q9UKW6-2)
T2 sequence: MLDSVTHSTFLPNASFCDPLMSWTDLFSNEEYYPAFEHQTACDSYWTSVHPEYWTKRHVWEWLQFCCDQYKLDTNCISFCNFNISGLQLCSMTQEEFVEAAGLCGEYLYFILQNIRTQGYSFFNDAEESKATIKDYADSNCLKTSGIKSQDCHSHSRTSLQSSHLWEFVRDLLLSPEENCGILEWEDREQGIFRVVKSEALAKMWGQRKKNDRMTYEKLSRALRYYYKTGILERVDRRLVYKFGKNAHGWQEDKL

GGAGAC
binding signal (FEV): 0.146
binding signal (CRX): 0.119
binding signal (ELF5): 0.143

ATGGAG
binding signal (FEV): 0.532
binding signal (CRX): 0.546
binding signal (ELF5): 0.565

GGCACG
binding signal (FEV): 0.839
binding signal (CRX): 0.629
binding signal (ELF5): 0.83

TCGGGA
binding signal (FEV): 0.357
binding signal (CRX): 0.429
binding signal (ELF5): 0.395

CAGTGA
binding signal (FEV): 0.337
binding signal (CRX): 0.312
binding signal (ELF5): 0.319

CAGGCA
binding signal (FEV): 0.711
binding signal (CRX): 0.562
binding signal (ELF5): 0.663

GCACCG
binding signal (FEV): 0.862
binding signal (CRX): 0.489
binding signal (ELF5): 0.65

CGGTAC
binding signal (CRX): 0.582

TGAGCA
binding signal (FEV): 0.874
binding signal (CRX): 0.803
binding signal (ELF5): 0.711

GGACGG
binding signal (FEV): 0.538
binding signal (CRX): 0.36
binding signal (ELF5): 0.554

CGGTCC
binding signal (CRX): 0.566
binding signal (ELF5): 0.9

ACGAGG
binding signal (FEV): 0.74
binding signal (CRX): 0.613
binding signal (ELF5): 0.788

GGACAG
binding signal (FEV): 0.573
binding signal (CRX): 0.44
binding signal (ELF5): 0.572

GAGCGC
binding signal (FEV): 0.608
binding signal (CRX): 0.459
binding signal (ELF5): 0.523

CGGCCG
binding signal (CRX): 0.584
binding signal (ELF5): 0.764

GACGAG
binding signal (FEV): 0.513
binding signal (CRX): 0.415
binding signal (ELF5): 0.466

AAGTCG
binding signal (FEV): 0.489
binding signal (CRX): 0.483
binding signal (ELF5): 0.495

TGAGTC
binding signal (FEV): 0.179
binding signal (CRX): 0.197
binding signal (ELF5): 0.184

GGCCAC
binding signal (CRX): 0.683
binding signal (ELF5): 0.927

GGATAG
binding signal (FEV): 0.696
binding signal (CRX): 0.646
binding signal (ELF5): 0.731

AGCGCG
binding signal (FEV): 0.732
binding signal (CRX): 0.665
binding signal (ELF5): 0.77

GGTGAT
binding signal (FEV): 0.839
binding signal (CRX): 0.853
binding signal (ELF5): 0.764

GTCGCC
binding signal (FEV): 0.898
binding signal (CRX): 0.585
binding signal (ELF5): 0.889

CGGACA
binding signal (CRX): 0.452
binding signal (ELF5): 0.82

GGTGGC
binding signal (FEV): 0.784
binding signal (CRX): 0.594
binding signal (ELF5): 0.68

GTGACA
binding signal (FEV): 0.803
binding signal (CRX): 0.51
binding signal (ELF5): 0.805

GGACCG
binding signal (CRX): 0.563
binding signal (ELF5): 0.808

GACTCA
binding signal (CRX): 0.885
binding signal (ELF5): 0.973

ATAGGA
binding signal (FEV): 0.777
binding signal (CRX): 0.838
binding signal (ELF5): 0.849

ACGAGA
binding signal (FEV): 0.635
binding signal (CRX): 0.736
binding signal (ELF5): 0.645

AGGACT
binding signal (CRX): 0.929
binding signal (ELF5): 0.954

TCGGCC
binding signal (FEV): 0.751
binding signal (CRX): 0.63
binding signal (ELF5): 0.668

CAGTGC
binding signal (FEV): 0.789
binding signal (CRX): 0.558
binding signal (ELF5): 0.697

CAGGTC
binding signal (FEV): 0.633
binding signal (CRX): 0.514
binding signal (ELF5): 0.665

AGCGTA
binding signal (FEV): 0.887
binding signal (CRX): 0.924
binding signal (ELF5): 0.977

CGGGCG
binding signal (FEV): 0.46
binding signal (CRX): 0.307
binding signal (ELF5): 0.376

TGGGGA
binding signal (FEV): 0.749
binding signal (CRX): 0.85
binding signal (ELF5): 0.847

CCAGGT
binding signal (FEV): 0.708
binding signal (CRX): 0.587
binding signal (ELF5): 0.722

TCGGGG
binding signal (FEV): 0.359
binding signal (CRX): 0.414
binding signal (ELF5): 0.375

GAGACT
binding signal (FEV): 0.4
binding signal (CRX): 0.441
binding signal (ELF5): 0.386

ACGGCG
binding signal (FEV): 0.8
binding signal (CRX): 0.68
binding signal (ELF5): 0.779

CGGTCG
binding signal (FEV): 0.437
binding signal (CRX): 0.258
binding signal (ELF5): 0.378

TGTGTA
binding signal (FEV): 0.806
binding signal (CRX): 0.78
binding signal (ELF5): 0.797

CATCGG
binding signal (FEV): 0.695
binding signal (CRX): 0.614
binding signal (ELF5): 0.61

TGGGAG
binding signal (FEV): 0.453
binding signal (CRX): 0.385
binding signal (ELF5): 0.416

CATGGA
binding signal (FEV): 0.841
binding signal (CRX): 0.861
binding signal (ELF5): 0.852

GCTGTG
binding signal (FEV): 0.638
binding signal (CRX): 0.555
binding signal (ELF5): 0.555

AGTTGA
binding signal (FEV): 0.776
binding signal (CRX): 0.678
binding signal (ELF5): 0.772

AGCAGT
binding signal (FEV): 0.709
binding signal (CRX): 0.629
binding signal (ELF5): 0.742

ACTAGT
binding signal (FEV): 0.832
binding signal (CRX): 0.843
binding signal (ELF5): 0.819

GTGATT
binding signal (FEV): 0.707
binding signal (CRX): 0.992
binding signal (ELF5): 0.682

CCCGGG
binding signal (FEV): 0.793
binding signal (CRX): 0.644
binding signal (ELF5): 0.803

AGTAAG
binding signal (FEV): 0.778
binding signal (CRX): 0.916
binding signal (ELF5): 0.84

GAGATC
binding signal (FEV): 0.443
binding signal (CRX): 0.544
binding signal (ELF5): 0.422

ACACAG
binding signal (FEV): 0.932
binding signal (CRX): 0.732
binding signal (ELF5): 0.866

CGTAGT
binding signal (FEV): 0.767
binding signal (CRX): 0.641
binding signal (ELF5): 0.858

GATTGG
binding signal (FEV): 0.79
binding signal (CRX): 1.01
binding signal (ELF5): 0.841

CGGGTG
binding signal (FEV): 0.655
binding signal (CRX): 0.429
binding signal (ELF5): 0.667

AGGCAA
binding signal (FEV): 0.763
binding signal (CRX): 0.629
binding signal (ELF5): 0.706

ACCAGA
binding signal (FEV): 0.887
binding signal (CRX): 1.06
binding signal (ELF5): 0.878

AGAAAG
binding signal (FEV): 0.836
binding signal (CRX): 1.01
binding signal (ELF5): 0.817

GTCAAG
binding signal (FEV): 0.748
binding signal (CRX): 0.64
binding signal (ELF5): 0.779

ACGGGA
binding signal (FEV): 0.536
binding signal (CRX): 0.459
binding signal (ELF5): 0.616

AGCCCG
binding signal (FEV): 0.9
binding signal (CRX): 0.739
binding signal (ELF5): 0.867

AGATTG
binding signal (FEV): 0.78
binding signal (CRX): 1.06
binding signal (ELF5): 0.713

TAGTGA
binding signal (FEV): 0.565
binding signal (CRX): 0.693
binding signal (ELF5): 0.552

GTTCGG
binding signal (FEV): 0.636
binding signal (CRX): 0.508
binding signal (ELF5): 0.631

CGGCAG
binding signal (FEV): 0.815
binding signal (CRX): 0.6
binding signal (ELF5): 0.793

TACAGT
binding signal (FEV): 0.818
binding signal (CRX): 0.846
binding signal (ELF5): 0.836

ACAGAG
binding signal (FEV): 0.71
binding signal (CRX): 0.655
binding signal (ELF5): 0.703

CGCGGG
binding signal (FEV): 0.778
binding signal (CRX): 0.555
binding signal (ELF5): 0.724

AGTGCG
binding signal (FEV): 0.811
binding signal (CRX): 0.577
binding signal (ELF5): 0.848

GCAGGG
binding signal (FEV): 0.673
binding signal (CRX): 0.538
binding signal (ELF5): 0.63

AGGAGA
binding signal (FEV): 0.201
binding signal (CRX): 0.219
binding signal (ELF5): 0.211

GACTGA
binding signal (FEV): 0.832
binding signal (CRX): 0.69
binding signal (ELF5): 0.743

TGGGGC
binding signal (FEV): 0.831
binding signal (CRX): 0.667
binding signal (ELF5): 0.757

GTAGCC
binding signal (FEV): 0.949
binding signal (CRX): 0.699
binding signal (ELF5): 0.984

TCGTAG
binding signal (FEV): 0.83
binding signal (CRX): 0.766
binding signal (ELF5): 0.796

AAGACC
binding signal (FEV): 0.853
binding signal (CRX): 0.927
binding signal (ELF5): 0.905

GAGTCC
binding signal (FEV): 0.38
binding signal (CRX): 0.312
binding signal (ELF5): 0.388

CCTGTC
binding signal (FEV): 0.906
binding signal (CRX): 0.639
binding signal (ELF5): 0.96

GGACTG
binding signal (FEV): 0.724
binding signal (CRX): 0.534
binding signal (ELF5): 0.668

CCAGAG
binding signal (FEV): 0.663
binding signal (CRX): 0.668
binding signal (ELF5): 0.626

TGAGTG
binding signal (FEV): 0.425
binding signal (CRX): 0.4
binding signal (ELF5): 0.409

GGGAAG
binding signal (FEV): 0.752
binding signal (CRX): 0.498
binding signal (ELF5): 1.24

CTGGGA
binding signal (FEV): 0.797
binding signal (CRX): 0.842
binding signal (ELF5): 0.84
